# Experimental data taken from patent publication US20100227918A1, “STREPTOMYCES-DERIVED ANTIMICROBIAL COMPOUND AND METHOD OF USING SAME AGAINST ANTIBIOTIC-RESISTANT BACTERIA” (Taro Pharmaceuticals North America, Inc., priority 2006, published 2010).
# Some of these results come from one statement about several compounds together.
# Tested on: tested microorganisms
# Test: antimicrobial paper disc assay, positive controls
# Assay type: cell-based
# Conditions: 24-hour incubation, paper disc 5 mm, e.g., 20-25 mm in general
structure (smiles),measurement,setting,value
CN[C@H](CC(C)C)C(=O)N[C@H]1C(=O)N[C@@H](CC(N)=O)C(=O)N[C@H]2C(=O)N[C@H]3C(=O)N[C@H](C(=O)N[C@H](C(=O)O)c4cc(O)cc(O)c4-c4cc3ccc4O)[C@H](O)c3ccc(c(Cl)c3)Oc3cc2cc(c3O[C@@H]2O[C@H](CO)[C@@H](O)[C@H](O)[C@H]2O[C@H]2C[C@](C)(N)[C@H](O)[C@H](C)O2)Oc2ccc(cc2Cl)[C@H]1O [vancomycin],zone of inhibition of positive controls,secondary screening,greater than 7 mm
same,zone of inhibition of positive controls,tertiary screening,greater than 7 mm
